This note sets out measurements from the supplement of paper PMC12889115.

The list shows a part of the results. Values are raw readings; no control value is given beside them.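 In the initial screen, polymyxin B was used at a concentration that permeabilizes Salmonella's outer membrane but not its inner membrane. Maximum growth was set by DMSO wells with or without polymyxin B. Since plates varied, data were ranked per plate, and compounds giving the lowest OD600 advanced as hits.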

The test system of the assay is Salmonella enterica serovar Typhimurium SL1344. Nature of the assay: bacterial growth OD600 after 18 h with compound and polymyxin B; higher = more bacterial growth (less inhibition). Particulars: 50 µM, Mueller-Hinton broth.

As to `Fc1cccc(-c2cnnc(NC3CCCCCC3)n2)c1`, the “bacterial growth OD600” value (polymyxin B 0.75 µg/mL) is 0.27. Consider `Cc1nc(C)c(CC(=O)N2CCCC(CCC(=O)N(C)CCc3ccccn3)C2)s1` (centres undefined), for which the “bacterial growth OD600” value (polymyxin B 1 µg/mL) is 1.03. As to `CCCCN(C)C(=O)c1nc2ccccn2c1CN1CCN(c2ccccc2F)CC1`, the “bacterial growth OD600” value (polymyxin B 1 µg/mL) was 0.815. Regarding `Cc1cccnc1CNC(=O)c1coc(COc2cccc(C(F)(F)F)c2)n1`, where the note is “polymyxin B 1 µg/mL”, the “bacterial growth OD600” value came to 0.013.

Turning to `CC(C)c1c(C(=O)NCC2(N3CCOCC3)CCCCCC2)cnn1-c1nccc(-c2ccco2)n1`, the “bacterial growth OD600” value (polymyxin B 0.75 µg/mL) is 0.698. Take `COc1ccc(CN2CCN(Cc3ccccc3F)C(CCO)C2)cc1O` (centres undefined): under “polymyxin B 1 µg/mL”, the “bacterial growth OD600” value stood at 0.863. For `O=C(CC1CCCC1)N1CCC(CO)(Cc2cccc(C(F)(F)F)c2)CC1`, the “bacterial growth OD600” value (polymyxin B 1 µg/mL) stood at 0.007.

Turning to `CCOC(=O)C1(CCCc2ccccc2)CCN(C(=O)C2CCCC2)CC1`, the “bacterial growth OD600” value (polymyxin B 1 µg/mL) amounted to 0.012. The same measure, in the same setting: next, `COc1ccc(C(=O)Nc2ccnn2C2CCN(C(=O)C=C(C)C)CC2)cc1`: 0.967. Take `Cc1cc(CN2CC[C@@H](N3CCN(c4ccccn4)CC3)[C@H](O)C2)oc1C`: the “bacterial growth OD600” value (polymyxin B 1 µg/mL) was determined as 0.894. Turning to `COc1cc(CN2Cc3ccccc3OC(C)C2)cc(OC)c1OC` (centres undefined), the “bacterial growth OD600” value (polymyxin B 0.75 µg/mL) is 0.895. Consider `Cc1ccc(S(=O)(=O)NC2CC(=O)N(Cc3cccc(F)c3)C2)c(C)c1` (centres undefined), for which the “bacterial growth OD600” value (polymyxin B 1 µg/mL) came out at 0.959. Take `Cc1ccc(-n2cc(CN(C)C3CCOC3)c(-c3ccc(F)cc3)n2)cc1` (centres undefined): under “polymyxin B 1 µg/mL”, the “bacterial growth OD600” value was determined as 0.813.

Regarding `CCS(=O)(=O)c1ncc(CN2CCCC(COC)C2)n1CCCc1ccccc1` (centres undefined), where the note is “polymyxin B 1 µg/mL”, the “bacterial growth OD600” value came out at 0.729. Consider `CCOC(=O)N1CCN(C(=O)c2ccc(N3CCC(NCc4c(C)nn(CC)c4C)CC3)cc2)CC1`, for which the “bacterial growth OD600” value (polymyxin B 0.75 µg/mL) worked out at 0.765. In the case of `c1nc(CN(CCN2CCCCC2)CC2CCCN(C3CCCC3)C2)c[nH]1` (centres undefined), the “bacterial growth OD600” value (polymyxin B 1 µg/mL) is 0.967. Still for that read-out and setting: with `COc1ccccc1NC(=O)Nc1ccnn1C1CCN(C(=O)NC(C)C)CC1` the figure was 1.01. With `Cc1nc(N2CCC(C(=O)NCC3(O)CCCCC3)CC2)nc2cc(S(C)(=O)=O)ccc12`, the “bacterial growth OD600” value (polymyxin B 0.75 µg/mL) was 0.849. As for `C=C(C)CNC(=O)CC(c1ccccc1)c1ccc2c(c1)OCO2` (centres undefined), the “bacterial growth OD600” value (polymyxin B 1 µg/mL) is 0.17.
